One substance from paper doi:10.1101/2025.04.16.649213 can be followed below.

By UniProt entry, the sequences of proteins in these tests, tags left out. Where a name states a change or a piece, a line headed by the entry shows the natural chain unless it says otherwise.
UniProt P11229, whole entry, looked up, stated change not applied: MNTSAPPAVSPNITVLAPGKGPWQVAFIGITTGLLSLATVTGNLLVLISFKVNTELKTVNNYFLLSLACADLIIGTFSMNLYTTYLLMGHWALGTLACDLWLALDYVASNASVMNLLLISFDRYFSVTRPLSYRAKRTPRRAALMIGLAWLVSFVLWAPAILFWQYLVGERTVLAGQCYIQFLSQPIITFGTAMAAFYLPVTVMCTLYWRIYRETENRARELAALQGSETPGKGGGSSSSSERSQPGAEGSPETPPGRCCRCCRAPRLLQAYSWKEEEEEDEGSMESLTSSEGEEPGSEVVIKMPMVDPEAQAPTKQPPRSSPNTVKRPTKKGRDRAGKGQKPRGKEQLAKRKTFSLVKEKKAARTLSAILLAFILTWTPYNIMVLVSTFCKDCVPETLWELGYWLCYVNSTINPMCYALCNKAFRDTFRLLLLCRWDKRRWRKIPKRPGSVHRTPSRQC

In test [1] the target is M1RΔICL3 (NLuc-M1R with Thr230, Ser251, Thr254, Ser321, Thr354 and Ser356 deletion at ICL3 loop) (human) (UniProt P11229). The test can be described thus: FRET or BRET.
Test [2] concerns the target M1R-S251A, T254A (NLuc-M1R with Ser251 and Thr254 substitution with alanine at ICL3 loop) (human) (UniProt P11229). The test can be described thus: FRET or BRET.

These are yes or no findings as the source states them, for the method shown. Binding seen in cells or lysates may run through a third protein. Some binding calls cover weakened binding; strength is not graded here.

As to “HaloTag-β-arrestin2 (from UniProt P32121 1-409)”, the binding entry in test [1] and in test [2] was “binds” in each case.
